The assay deals with T1, native KCC2 (K+-Cl- cotransporter KCC2) (mouse (endogenous in brain)) (UniProt Q91V14).
T1 sequence: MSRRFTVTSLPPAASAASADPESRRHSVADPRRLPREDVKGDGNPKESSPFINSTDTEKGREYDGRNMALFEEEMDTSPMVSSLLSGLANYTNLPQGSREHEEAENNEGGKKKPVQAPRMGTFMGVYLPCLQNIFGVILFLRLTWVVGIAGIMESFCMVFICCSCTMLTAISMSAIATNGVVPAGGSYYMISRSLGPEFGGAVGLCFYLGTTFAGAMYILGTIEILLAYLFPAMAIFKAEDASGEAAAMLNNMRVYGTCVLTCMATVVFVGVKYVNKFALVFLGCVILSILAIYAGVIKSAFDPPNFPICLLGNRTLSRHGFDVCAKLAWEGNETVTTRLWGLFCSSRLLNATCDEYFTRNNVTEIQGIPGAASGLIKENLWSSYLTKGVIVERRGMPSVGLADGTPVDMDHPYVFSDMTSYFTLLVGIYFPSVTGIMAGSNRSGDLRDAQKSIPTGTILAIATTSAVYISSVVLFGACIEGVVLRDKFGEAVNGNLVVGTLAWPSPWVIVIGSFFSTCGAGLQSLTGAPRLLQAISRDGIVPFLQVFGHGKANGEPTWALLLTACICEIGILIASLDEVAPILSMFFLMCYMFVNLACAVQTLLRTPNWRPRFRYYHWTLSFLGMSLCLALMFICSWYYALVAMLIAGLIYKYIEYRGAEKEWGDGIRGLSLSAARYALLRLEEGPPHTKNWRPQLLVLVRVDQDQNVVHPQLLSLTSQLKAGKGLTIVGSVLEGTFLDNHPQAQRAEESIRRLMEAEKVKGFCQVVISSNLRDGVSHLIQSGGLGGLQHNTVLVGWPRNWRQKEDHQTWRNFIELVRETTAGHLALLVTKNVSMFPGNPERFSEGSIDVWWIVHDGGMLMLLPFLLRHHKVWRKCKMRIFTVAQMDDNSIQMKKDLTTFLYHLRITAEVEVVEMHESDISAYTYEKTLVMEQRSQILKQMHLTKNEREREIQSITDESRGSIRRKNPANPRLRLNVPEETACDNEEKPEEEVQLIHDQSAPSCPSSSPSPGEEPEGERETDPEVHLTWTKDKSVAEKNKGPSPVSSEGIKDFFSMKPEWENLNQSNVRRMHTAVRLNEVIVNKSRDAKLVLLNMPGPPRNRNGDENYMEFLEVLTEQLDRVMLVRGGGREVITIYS
Briefly: affinity purification with mass spectrometry; anti-KCC2 antibodies (C-terminal, N-terminal KCC2b, pS940) cross-linked with DMP to GammaBind IgG beads; C12E9-solubilised whole-brain membrane fractions of P5 and P50 mice; 4 hr, 4°C; parallel IgG/IgY controls.

These are yes or no findings as the source states them, for the method shown. In cells and extracts the contact can be indirect. Here binding means that the protein was enriched with, or labelled near, the bait; the list need not be complete.

B1: UQCR11 (protein, UniProt Q9CPX8 1-56)
chain: MLSRFLGPRYRELARNWIPTAGMWGTVGAVGLVWATDWRLILDWVPYINGKFKKDD
Turning to B1, the binding result is on record as “binds”.

B2: SLC25A3 (protein, UniProt Q8VEM8 46-357)
chain: AVEEYSCEFGSMKYYALCGFGGVLSCGLTHTAVVPLDLVKCRMQVDPQKYKGIFNGFSITLKEDGVRGLAKGWAPTLIGYSMQGLCKFGFYEVFKALYSNILGEENTYLWRTSLYLASSASAEFFADIALAPMEAAKVRIQTQPGYANTLREAVPKMYKEEGLNAFYKGVAPLWMRQIPYTMMKFACFERTVEALYKFVVPKPRSECTKAEQLVVTFVAGYIAGVFCAIVSHPADSVVSVLNKEKGSTASQVLQRLGFRGVWKGLFARIIMIGTLTALQWFIYDSVKVYFRLPRPPPPEMPESLKKKLGLTE
Take B2: the binding result was “binds”.

B3: ATP5C1 (protein, UniProt Q91VR2 26-298)
chain: ATLKDITRRLKSIKNIQKITKSMKMVAAAKYARAERELKPARVYGTGSLALYEKADIKAPEDKKKHLIIGVSSDRGLCGAIHSSVAKQMKNEVAALTAAGKEVMIVGVGEKIKGILYRTHSDQFLVSFKDVGRKPPTFGDASVIALELLNSGYEFDEGSIIFNQFKSVISYKTEEKPIFSLNTIATAETMSIYDDIDADVLQNYQEYNLANLIYYSLKESTTSEQSARMTAMDNASKNASDMIDKLTLTFNRTRQAVITKELIEIISGAAALD
Consider B3, for which the binding result is “binds”.

B4: C1QC (protein, UniProt Q02105 30-246)
chain: SAGCYGIPGMPGMPGAPGKDGHDGLQGPKGEPGIPAVPGTRGPKGQKGEPGMPGHRGKNGPRGTSGLPGDPGPRGPPGEPGVEGRYKQKHQSVFTVTRQTTQYPEANALVRFNSVVTNPQGHYNPSTGKFTCEVPGLYYFVYYTSHTANLCVHLNLNLARVASFCDHMFNSKQVSSGGVLLRLQRGDEVWLSVNDYNGMVGIEGSNSVFSGFLLFPD
As for B4, the binding entry is “binds”.

B5: TNR (protein, UniProt Q8BYI9 32-1358)
chain: RLEVTTERAQRQTVEEEGGASSYNTSSKEQPMVFNHVYNINVPLESLCSSGLEASAEQDMSAEDDTLAEYIGQTSDHESQVTFTHKINLPKKACPCASSSQVLQELLSRIEMLEREVSLLRDQCNTNCCQESAATGQLDYVPHCSGHGNFSFESCGCICNEGWFGKNCSEPYCPLGCSSRGVCVDGQCICDSEYSGDDCSELRCPTDCSSRGLCVDGECVCEEPYTGEDCRELRCPGDCSGKGQCANGTCLCQEGYAGEDCSQRRCLNACSGRGHCQEGLCICEEGYQGPDCSAVAPPEDLRVAGISDRSIELEWDGPMAVTEYVISYQPTALGGLQLQQRVPGDWSGVTIMELEPGLTYNISVYAVISNILSLPITAKVATHLSTPQGLQFKTITETTVEVQWEPFSFSFDGWEISFIPKNNEGGVIAQLPSDVTSFNQTGLKPGEEYIVNVVALKEQARSPPTSASVSTVIDGPTQILVRDVSDTVAFVEWTPPRAKVDFILLKYGLVGGEGGKTTFRLQPPLSQYSVQALRPGSRYEVSISAVRGTNESEASSTQFTTEIDAPKNLRVGSRTATSLDLEWDNSEAEAQEYKVVYSTLAGEQYHEVLVPKGIGPTTKTTLTDLVPGTEYGVGISAVMNSKQSIPATMNARTELDSPRDLMVTASSETSISLIWTKASGPIDHYRITFTPSSGISSEVTVPRDRTSYTLTDLEPGAEYIISITAERGRQQSLESTVDAFTGFRPISHLHFSHVTSSSVNITWSDPSPPADRLILNYSPRDKEEDMLEVLLDATKRHAVLMGLQPATEYIVNLVAVHGTVTSEPIVGSITTGIDPPKNITISNVTKDSLTVSWSSPVAPFDYYRVSYRPTQVGRLDSSVVPNTVTEFAITRLYPATEYEISLNSVRGREESERICTLVHTAMDSPMDLIATNITPTEALLQWKAPMGEVENYVIVLTHFAIAGETILVDGVSEEFQLVDLLPSTHYTVTMYATSGPLMSGTIATNFSTLLDPPDNLTASEVTRQSALISWQPPRAAIENYVLTYKSTDGSRKELIVDAEDTWIRLEGLSENTDYTVLLQAAQEATRSSLTSTVFTTGGRVFSHPQDCAQHLMNGDTLSGVYTIFLNGELSHKLQVYCDMTTDGGGWIVFQRRQNGQTDFFRKWADYRVGFGNLEDEFWLGLDNIHRITAQGRYELRVDMRDGQEAVFAYYDKFAVEDSRSLYKIRIGSYNGTAGDSLSYHQGRPFSTEDRDNDVAVTNCAMSYKGAWWYKNCHRTNLNGKYGESRHSQGINWYHWKGHEFSIPFVEMKMRPYIHRLTAGRKRRALKF
For B5, the binding entry is given as “binds”.

B6: RAB3IP (protein, UniProt Q68EF0 1-428)
chain: MANDPLEGFHEVNLASPTSPDLLGVCDPGTQEQTTSPSVIYRPHPSTLCAAPLQANALDLSDLPTQPVYSSPRHFNCAEVSNISAHAPDPASSVPSAVASGLTKLTSRKDSCNAEREFLQGATITEASAGNDDIFGLSTDSLSRLRSPSVLEVREKGYERLKEELAKAQREAHKMVREANVKQATAEKQLKEAQGKIDVLQAEVAALKTLVLSSSPTSPTQEPLAAAKTPFKRGHTRNKSTSSAMGGSHQDLSVIQPIVKDCKEADLSLYNEFRSWKDEPTMDRTCPFLDKIYQEDIFPCLTFAKSELASAVLEAVENNTLSIEPVGLQPIRFVKASAVECGGPKKCALTGQSKPCRHRIRLGDSSCCYYISPFCRYRITSVCNFFTYIRYIQQGLVKQQDVDQMFWEVMQLRKEMSLAKLGYFKEEL
Regarding B6, the binding result is listed as “binds”.

B7: ADGRL2 (protein, UniProt Q8JZZ7 26-1487)
chain: FSRAALPFGLVRRELSCEGYSIDLRCPGSDVIMIESANYGRTDDKICDADPFQMENTDCYLPDAFKIMTQRCNNRTQCIVVTGSDVFPDPCPGTYKYLEVQYECVPYSKMLVFVCPGTLKAIVDSPCIYEAEQKSGAWCKDPLQAADKIYFMPWTPYRTDTLIEYASLEDFQNSRQTTTYKLPNRVDGTGFVVYDGAVFFNKERTRNIVKFDLRTRIKSGEAIINYANYHDTSPYRWGGKTDIDLAVDENGLWVIYATEQNNGMIVISQLNPYTLRFEATWETAYDKRAASNAFMICGVLYVVRSVYQDNESEAGKNTIDYIYNTRLSRGEYVDVPFPNQYQYIAAVDYNPRDNQLYVWNNNFILRYSLEFGPPDPAQVPTTAVTITSSAELFKTTISTTSSASQRGPVSSTAAGPQDGSRGTKPPPAVSTTKIPPVTNIFPLPERFCEALDWKGIKWPQTQRGMMVERPCPKGTRGTASYLCMASTGTWNPKGPDLSNCTSHWVNQLAQKIRSGENAASLANELAKHTKGHVFAGDVSSSVRLMEQLVDILDAQLQELKPSEKDSAGRSYNKLQKREKTCRAYLKAIVDTVDNLLRAEALESWKHMNSSEQAHTATMLLDTLEEGAFVLADNLLEPTRVSMPTENIVLEVAVLSTEGQVQDFKFPLGLKGLGSSIQLSANTVKQNSRNGLAKLVFIIYRSLGQFLSTENATIKLGADLMGRNSTIAVNSPVISVSINKESSRVYLTDPVLFTLPHIDPDNYFNANCSFWNYSERTMMGYWSTQGCKLVDTNKTRTTCACSHLTNFAILMAHREIAYKDGVHHLLLTVITWVGIVVSLVCLAICIFTFCFFRGLQSDRNTIHKNLCINLFIAEFIFLIGIDKTKYTIACPVFAGLLHFFFLAAFSWMCLEGVQLYLMLVEVFESEYSRKKYYYVAGYLFPATVVGVSAAIDYKSYGTVQACWLHVDNYFIWSFIGPVTFIILLNIIFLVITLCKMVKHSNTLKPDSSRLENINNYRVCDGYYNTDLPGYEDNKPFIKSWVLGAFALLCLLGLTWSFGLLFVNEETVVMAYLFTAFNAFQGLFIFIFHCALQKKVRKEYGKCFRHWYCCGGLPTESPHSSVKASTTRTSARYSSGTQSRIRRMWNDTVRKQSESSFISGDINSTSTLNQGMTGNYLLTNPLLRPHGTNNPYNTLLAETVVCNAPSAPAFNSPGHSLNNARDTSAMDTLPLNGNFNNSYSLRKADYHDGVQVVDCGLSLNDTAFEKMIISELVHNNLRGGNKTHNLELKLPVKPVIGGSSSEDDAIVADASSLMHGDNPGLEFRHKELEAPLIPQRTHSLLYQPQKKVKPEATDSYVSQLTAEADDHLQSPNRDSLYTSMPNLRDSPYPESSPDMAEDLSPSRRSENEDIYYKSMPNLGAGRHLHMCYQISRGNSDGYIIPINKEGCIPEGDVREGQMQLVTSL
Turning to B7, the binding result was “binds”.

B8: DCLK1 (protein, UniProt Q9JLM8 1-756)
chain: MSFGRDMELEHFDERDKAQRYSRGSRVNGLPSPTHSAHCSFYRTRTLQTLSSEKKAKKVRFYRNGDRYFKGIVYAISPDRFRSFEALLADLTRTLSDNVNLPQGVRTIYTIDGLKKISSLDQLVEGESYVCGSIEPFKKLEYTKNVNPNWSVNVKTTSASRAVSSLATAKGGPSEVRENKDFIRPKLVTIIRSGVKPRKAVRILLNKKTAHSFEQVLTDITDAIKLDSGVVKRLYTLDGKQVMCLQDFFGDDDIFIACGPEKFRYQDDFLLDESECRVVKSTSYTKIASASRRGTTKSPGPSRRSKSPASTSSVNGTPGSQLSTPRSGKSPSPSPTSPGSLRKQRISQHGGSSTSLSSTKVCSSMDENDGPGEGDELGRRHSLQRGWRREESEEGFQIPATITERYKVGRTIGDGNFAVVKECIERSTAREYALKIIKKSKCRGKEHMIQNEVSILRRVKHPNIVLLIEEMDVPTELYLVMELVKGGDLFDAITSTSKYTERDASGMLYNLASAIKYLHSLNIVHRDIKPENLLVYEHQDGSKSLKLGDFGLATIVDGPLYTVCGTPTYVAPEIIAETGYGLKVDIWAAGVITYILLCGFPPFRGSGDDQEVLFDQILMGQVDFPSPYWDNVSDSAKELINMMLLVNVDQRFSAVQVLEHPWVNDDGLPENEHQLSVAGKIKKHFNTGPKPSSTAAGVSVIATTALDKERQVFRRRRNQDVRSRYKAQPAPPELNSESEDYSPSSSETVRSPNSPF
As to B8, the binding entry is on record as “binds”.

The record behind these values is article PMC5640428.
